Reference: article PMC4438304

Biological target: T1, Rpt1 (S. cerevisiae) (UniProt P33299)
T1 sequence: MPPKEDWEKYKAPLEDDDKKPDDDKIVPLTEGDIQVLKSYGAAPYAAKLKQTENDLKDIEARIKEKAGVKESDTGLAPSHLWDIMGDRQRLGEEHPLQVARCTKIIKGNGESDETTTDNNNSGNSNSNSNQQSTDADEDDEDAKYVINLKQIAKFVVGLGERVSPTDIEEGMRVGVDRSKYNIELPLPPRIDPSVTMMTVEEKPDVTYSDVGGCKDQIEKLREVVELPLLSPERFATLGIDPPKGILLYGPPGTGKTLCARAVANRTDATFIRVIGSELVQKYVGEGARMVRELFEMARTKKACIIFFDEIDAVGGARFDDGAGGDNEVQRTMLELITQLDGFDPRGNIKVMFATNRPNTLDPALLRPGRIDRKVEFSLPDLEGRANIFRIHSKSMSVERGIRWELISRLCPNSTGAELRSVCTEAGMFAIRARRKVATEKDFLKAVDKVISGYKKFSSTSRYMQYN
Assay: pull-down; each RPT ATPase purified and immobilized on CH-sepharose beads, incubated with full-length Rpn11 or Rpn11ΔC; BSA beads as mock; anti-Rpn11 immunoblot

binding: binds
Substance: Rpn11ΔC (S. cerevisiae) (domain or fragment)

No constants are given. Whether binding was seen depends on the method and setting. In cells and extracts the contact can be indirect. Binding calls can cover weak binding; strength is not graded here.
